# Values quoted from earlier work as cited in patent publication US9388122B2, “Radioactive tyrosine derivative, method for producing same, labeling agent for positron imaging and medical agent for assessing grade of malignancy of tumor respectively composed of radioactive tyrosine derivative, and method for detecting tumor” (priority 2004, dated 2016).
# At least one read-out could not be matched to a standard name with certainty.
# Settings: cited from earlier work
smiles,measurement,value
"N[C@H](Cc1ccc(OCC[18F])cc1)C(=O)O [D-[^18F]FET, O—[^18F]fluoroethyl-D-tyrosine]",blood-brain barrier permeability,low blood-brain barrier permeability
